Reference: publication PMC12508586
No constants are given. Whether binding was seen depends on the method and setting. Binding seen in cells or lysates may run through a third protein. Some entries that bind do so weakly or less than the wild type.

Sequences of proteins named here, by UniProt entry; tags and fusion partners are left off.
UniProt Q15370: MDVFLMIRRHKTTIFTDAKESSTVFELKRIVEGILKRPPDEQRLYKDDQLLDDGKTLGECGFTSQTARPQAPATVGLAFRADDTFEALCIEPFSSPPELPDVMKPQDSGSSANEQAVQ
UniProt P46934: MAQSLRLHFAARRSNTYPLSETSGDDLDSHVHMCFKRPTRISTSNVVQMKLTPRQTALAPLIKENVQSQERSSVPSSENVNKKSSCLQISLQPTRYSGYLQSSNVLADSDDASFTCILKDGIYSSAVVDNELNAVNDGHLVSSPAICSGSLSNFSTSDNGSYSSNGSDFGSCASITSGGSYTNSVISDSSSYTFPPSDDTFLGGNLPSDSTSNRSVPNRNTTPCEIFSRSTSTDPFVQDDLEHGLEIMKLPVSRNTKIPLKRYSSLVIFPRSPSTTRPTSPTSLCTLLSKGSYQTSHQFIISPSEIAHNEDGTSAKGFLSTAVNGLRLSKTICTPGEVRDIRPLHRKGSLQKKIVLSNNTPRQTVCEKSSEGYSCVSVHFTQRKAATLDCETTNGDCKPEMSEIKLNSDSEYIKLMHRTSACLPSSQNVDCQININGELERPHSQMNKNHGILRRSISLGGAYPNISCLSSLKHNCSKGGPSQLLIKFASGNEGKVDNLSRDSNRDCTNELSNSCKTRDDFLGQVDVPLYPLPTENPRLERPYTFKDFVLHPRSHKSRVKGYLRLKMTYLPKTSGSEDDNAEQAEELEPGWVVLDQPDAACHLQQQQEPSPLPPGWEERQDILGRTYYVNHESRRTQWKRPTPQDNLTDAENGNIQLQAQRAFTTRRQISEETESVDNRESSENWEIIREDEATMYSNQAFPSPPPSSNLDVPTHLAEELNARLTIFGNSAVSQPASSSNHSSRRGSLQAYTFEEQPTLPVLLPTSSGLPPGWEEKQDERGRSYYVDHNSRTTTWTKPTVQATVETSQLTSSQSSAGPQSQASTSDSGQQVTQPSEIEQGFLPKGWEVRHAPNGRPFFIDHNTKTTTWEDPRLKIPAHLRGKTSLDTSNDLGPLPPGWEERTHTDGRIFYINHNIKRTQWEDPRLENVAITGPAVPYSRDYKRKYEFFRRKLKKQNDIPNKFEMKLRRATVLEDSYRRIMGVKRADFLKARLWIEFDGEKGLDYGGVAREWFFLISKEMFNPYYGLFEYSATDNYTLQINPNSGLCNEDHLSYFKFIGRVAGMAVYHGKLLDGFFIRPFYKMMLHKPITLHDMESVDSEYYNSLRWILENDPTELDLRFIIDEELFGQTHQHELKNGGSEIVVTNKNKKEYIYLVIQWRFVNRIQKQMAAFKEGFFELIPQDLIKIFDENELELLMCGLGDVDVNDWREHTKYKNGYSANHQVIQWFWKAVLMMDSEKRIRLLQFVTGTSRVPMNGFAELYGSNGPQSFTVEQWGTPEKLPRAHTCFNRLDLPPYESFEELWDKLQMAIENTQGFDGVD

How the values were obtained:
[1] = biological target: T1, Slit guidance ligand 2 (Slit2) (human (endogenous in MDA-MB-231 and BT-549)) (UniProt O94813); assay: co-IP; MDA-MB-231 and BT-549 cell lysates incubated 4 h with Sepharose CL-4B bead-conjugated IgG, TCEB2, Slit2 or NEDD4 antibody; bound proteins eluted and assessed by western blot
T1 sequence: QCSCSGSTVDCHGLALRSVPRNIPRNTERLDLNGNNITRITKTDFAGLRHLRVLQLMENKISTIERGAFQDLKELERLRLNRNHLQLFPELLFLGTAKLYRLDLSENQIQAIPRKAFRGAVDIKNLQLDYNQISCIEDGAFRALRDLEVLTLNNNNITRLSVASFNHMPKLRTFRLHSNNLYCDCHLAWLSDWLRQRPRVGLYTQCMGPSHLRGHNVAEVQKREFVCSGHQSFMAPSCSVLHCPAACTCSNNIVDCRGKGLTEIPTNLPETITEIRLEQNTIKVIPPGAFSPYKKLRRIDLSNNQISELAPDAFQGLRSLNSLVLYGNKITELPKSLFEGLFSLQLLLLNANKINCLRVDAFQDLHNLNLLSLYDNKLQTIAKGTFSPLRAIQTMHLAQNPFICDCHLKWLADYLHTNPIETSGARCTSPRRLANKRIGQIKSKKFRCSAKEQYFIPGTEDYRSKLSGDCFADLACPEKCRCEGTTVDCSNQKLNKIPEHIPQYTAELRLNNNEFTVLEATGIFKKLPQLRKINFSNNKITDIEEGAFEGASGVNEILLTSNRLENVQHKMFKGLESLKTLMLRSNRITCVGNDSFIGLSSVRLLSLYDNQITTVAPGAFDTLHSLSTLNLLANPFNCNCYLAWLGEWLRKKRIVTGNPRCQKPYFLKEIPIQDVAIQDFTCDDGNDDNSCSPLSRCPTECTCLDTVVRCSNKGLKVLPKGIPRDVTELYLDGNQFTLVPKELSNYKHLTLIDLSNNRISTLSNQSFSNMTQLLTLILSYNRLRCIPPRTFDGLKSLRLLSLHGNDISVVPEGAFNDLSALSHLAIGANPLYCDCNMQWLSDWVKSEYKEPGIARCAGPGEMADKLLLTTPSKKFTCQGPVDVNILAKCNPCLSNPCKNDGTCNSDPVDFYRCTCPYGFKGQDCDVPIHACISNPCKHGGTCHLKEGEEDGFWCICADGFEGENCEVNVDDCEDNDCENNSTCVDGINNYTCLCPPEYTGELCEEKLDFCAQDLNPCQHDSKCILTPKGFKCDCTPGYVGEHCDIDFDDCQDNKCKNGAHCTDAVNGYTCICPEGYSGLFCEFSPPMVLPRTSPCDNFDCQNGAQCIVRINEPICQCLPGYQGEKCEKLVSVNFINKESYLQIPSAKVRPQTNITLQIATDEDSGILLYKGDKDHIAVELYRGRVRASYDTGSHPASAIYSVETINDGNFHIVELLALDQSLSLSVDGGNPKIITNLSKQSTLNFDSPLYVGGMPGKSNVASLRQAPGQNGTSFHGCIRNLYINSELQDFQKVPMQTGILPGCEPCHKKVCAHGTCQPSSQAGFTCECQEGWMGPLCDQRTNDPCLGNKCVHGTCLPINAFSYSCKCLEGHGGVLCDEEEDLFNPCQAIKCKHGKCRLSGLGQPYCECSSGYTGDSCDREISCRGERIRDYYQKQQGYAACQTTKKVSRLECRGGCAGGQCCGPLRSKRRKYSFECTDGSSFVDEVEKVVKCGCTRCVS

[2] = biological target: Transcription elongation factor B polypeptide 2 (TCEB2) (human (endogenous in MDA-MB-231 and BT-549)) (UniProt Q15370); assay: as above

Substance | binding [1] | binding [2]
Transcription elongation factor B polypeptide 2 (TCEB2) (from UniProt Q15370 1-118) | binds | 
neural precursor cell-expressed developmentally downregulated gene 4 (NEDD4) (from UniProt P46934 1-1319) (enzyme) | binds | binds
